# Assay results as given in the M2OR odorant receptor database.
# The other results are listed elsewhere or left out. The calls were merged from several studies; some rest on single wells.
# How the values were obtained:
# Conditions in all cases: stereoisomer not certain
# O52I2 = tested on: T1, O52I2
# T1 sequence (whole entry): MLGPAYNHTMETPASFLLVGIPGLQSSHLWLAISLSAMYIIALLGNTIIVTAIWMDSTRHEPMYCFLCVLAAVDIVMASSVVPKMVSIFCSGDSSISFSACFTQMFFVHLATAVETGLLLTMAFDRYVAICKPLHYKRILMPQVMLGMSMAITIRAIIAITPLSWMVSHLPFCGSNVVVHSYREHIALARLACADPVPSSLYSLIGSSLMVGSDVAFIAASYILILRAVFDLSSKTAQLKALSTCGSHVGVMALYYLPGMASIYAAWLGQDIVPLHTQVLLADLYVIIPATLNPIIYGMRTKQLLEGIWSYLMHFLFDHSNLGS
# Summary of the method: (§1)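 Values were gathered from published papers (main text and supplementary material), with extra details requested from the original authors when needed, and checked for typos and inconsistencies. Each receptor–molecule pair is called responsive (active) if the original authors judged the measured signal statistically different from baseline, and non-responsive (inactive) otherwise. Assay methods varied by source, often transient mammalian cell-line luciferase assays. Recorded details include cell line, G-protein, co-transfected protein and tags.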
# O52J3 = tested on: T2, O52J3
# T2 sequence (whole entry): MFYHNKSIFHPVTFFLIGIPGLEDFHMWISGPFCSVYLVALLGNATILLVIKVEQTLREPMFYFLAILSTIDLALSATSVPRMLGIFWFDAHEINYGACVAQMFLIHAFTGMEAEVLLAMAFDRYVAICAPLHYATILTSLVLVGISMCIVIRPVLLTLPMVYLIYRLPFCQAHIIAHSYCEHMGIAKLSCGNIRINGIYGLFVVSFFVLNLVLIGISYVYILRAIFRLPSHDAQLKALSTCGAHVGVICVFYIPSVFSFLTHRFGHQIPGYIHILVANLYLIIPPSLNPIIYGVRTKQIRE
# Summary of the method: as §1
# O52L1 = tested on: T3, O52L1
# T3 sequence (whole entry): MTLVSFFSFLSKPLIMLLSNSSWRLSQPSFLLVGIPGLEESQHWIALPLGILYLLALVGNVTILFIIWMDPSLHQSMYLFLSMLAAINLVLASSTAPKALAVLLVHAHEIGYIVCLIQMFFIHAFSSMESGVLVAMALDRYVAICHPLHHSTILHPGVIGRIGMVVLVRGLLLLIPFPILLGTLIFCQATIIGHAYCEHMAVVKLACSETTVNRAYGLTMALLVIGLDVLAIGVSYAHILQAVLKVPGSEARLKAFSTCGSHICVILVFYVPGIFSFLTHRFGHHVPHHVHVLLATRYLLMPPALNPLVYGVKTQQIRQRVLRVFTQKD
# Summary of the method: as §1
# O52L2 = tested on: T4, O52L2
# T4 sequence (whole entry): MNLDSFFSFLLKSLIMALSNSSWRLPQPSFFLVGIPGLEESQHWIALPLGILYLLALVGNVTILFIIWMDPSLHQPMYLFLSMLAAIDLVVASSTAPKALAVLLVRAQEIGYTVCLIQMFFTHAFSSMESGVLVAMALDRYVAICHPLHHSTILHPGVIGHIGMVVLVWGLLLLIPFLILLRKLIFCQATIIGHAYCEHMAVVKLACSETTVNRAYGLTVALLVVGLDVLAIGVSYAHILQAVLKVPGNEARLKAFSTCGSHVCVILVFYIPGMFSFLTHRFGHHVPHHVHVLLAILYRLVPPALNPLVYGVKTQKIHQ
# Summary of the method: as §1
# O52M1 = tested on: T5, O52M1
# T5 sequence (whole entry): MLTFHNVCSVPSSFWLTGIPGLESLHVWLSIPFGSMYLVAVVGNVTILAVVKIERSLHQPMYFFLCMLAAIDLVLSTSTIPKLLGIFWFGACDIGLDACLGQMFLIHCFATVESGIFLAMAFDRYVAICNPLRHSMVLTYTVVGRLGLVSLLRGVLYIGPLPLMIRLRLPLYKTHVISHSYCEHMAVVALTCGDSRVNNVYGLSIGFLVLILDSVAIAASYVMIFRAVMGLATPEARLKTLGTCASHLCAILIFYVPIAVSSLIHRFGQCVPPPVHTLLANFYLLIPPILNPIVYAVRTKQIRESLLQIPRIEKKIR
# Summary of the method: as §1
# O52N1 = tested on: T6, O52N1
# T6 sequence (whole entry): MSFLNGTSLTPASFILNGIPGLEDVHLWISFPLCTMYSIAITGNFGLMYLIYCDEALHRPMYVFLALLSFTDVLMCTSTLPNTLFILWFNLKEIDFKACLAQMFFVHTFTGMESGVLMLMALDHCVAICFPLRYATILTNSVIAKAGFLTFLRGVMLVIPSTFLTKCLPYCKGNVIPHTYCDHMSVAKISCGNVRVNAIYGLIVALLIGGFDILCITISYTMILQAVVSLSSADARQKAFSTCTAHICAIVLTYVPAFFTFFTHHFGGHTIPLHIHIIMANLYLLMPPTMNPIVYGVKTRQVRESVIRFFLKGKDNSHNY
# Summary of the method: as §1
# O52N2 = tested on: T7, O52N2
# T7 sequence (whole entry): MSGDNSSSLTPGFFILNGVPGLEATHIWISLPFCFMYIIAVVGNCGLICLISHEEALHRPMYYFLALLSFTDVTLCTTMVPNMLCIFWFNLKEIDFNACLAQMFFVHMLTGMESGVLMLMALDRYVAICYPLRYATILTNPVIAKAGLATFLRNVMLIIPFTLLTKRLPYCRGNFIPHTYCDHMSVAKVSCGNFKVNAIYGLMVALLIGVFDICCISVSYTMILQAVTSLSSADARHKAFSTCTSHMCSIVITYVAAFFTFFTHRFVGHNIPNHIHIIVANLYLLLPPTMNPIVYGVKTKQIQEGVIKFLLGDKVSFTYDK
# Summary of the method: as §1
# O52N4 = tested on: T8, O52N4
# T8 sequence (whole entry): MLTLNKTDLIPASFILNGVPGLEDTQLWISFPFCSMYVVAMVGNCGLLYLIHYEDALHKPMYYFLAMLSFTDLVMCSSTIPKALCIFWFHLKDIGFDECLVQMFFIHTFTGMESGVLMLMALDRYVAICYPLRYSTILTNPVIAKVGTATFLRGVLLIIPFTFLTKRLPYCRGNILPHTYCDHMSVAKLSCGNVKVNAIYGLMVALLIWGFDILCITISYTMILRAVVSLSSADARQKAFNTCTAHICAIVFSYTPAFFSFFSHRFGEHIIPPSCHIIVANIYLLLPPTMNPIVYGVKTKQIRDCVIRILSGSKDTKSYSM
# Summary of the method: as §1
# O52P1 = tested on: T9, O52P1
# T9 sequence (whole entry): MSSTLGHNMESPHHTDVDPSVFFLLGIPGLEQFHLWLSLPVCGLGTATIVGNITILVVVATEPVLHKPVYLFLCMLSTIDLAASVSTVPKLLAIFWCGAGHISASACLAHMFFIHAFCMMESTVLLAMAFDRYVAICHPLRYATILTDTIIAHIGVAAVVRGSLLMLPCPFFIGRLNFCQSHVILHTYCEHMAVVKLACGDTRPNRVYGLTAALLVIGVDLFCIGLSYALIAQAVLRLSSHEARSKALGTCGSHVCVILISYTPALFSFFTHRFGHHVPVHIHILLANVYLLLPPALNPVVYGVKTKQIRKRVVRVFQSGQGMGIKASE
# Summary of the method: as §1
# O52R1 = tested on: T10, O52R1
# T10 sequence (whole entry): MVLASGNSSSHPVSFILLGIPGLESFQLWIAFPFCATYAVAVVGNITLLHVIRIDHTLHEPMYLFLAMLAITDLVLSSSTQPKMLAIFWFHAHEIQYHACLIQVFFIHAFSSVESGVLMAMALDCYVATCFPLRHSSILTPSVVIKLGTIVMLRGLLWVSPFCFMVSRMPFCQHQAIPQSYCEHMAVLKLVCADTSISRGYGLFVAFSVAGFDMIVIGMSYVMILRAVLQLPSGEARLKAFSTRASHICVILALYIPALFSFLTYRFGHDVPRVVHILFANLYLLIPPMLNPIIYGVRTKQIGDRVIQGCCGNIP
# Summary of the method: as §1
# O52W1 = tested on: T11, O52W1
# T11 sequence (whole entry): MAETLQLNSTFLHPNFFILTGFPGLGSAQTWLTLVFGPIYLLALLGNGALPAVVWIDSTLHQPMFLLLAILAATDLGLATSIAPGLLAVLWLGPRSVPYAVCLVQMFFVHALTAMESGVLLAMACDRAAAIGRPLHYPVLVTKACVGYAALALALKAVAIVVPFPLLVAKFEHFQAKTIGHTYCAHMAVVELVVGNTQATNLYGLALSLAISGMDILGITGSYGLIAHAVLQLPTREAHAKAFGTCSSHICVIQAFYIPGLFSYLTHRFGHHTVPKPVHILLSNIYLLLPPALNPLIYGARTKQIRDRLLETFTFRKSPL
# Summary of the method: as §1
# O56A3 = tested on: T12, O56A3
# T12 sequence (whole entry): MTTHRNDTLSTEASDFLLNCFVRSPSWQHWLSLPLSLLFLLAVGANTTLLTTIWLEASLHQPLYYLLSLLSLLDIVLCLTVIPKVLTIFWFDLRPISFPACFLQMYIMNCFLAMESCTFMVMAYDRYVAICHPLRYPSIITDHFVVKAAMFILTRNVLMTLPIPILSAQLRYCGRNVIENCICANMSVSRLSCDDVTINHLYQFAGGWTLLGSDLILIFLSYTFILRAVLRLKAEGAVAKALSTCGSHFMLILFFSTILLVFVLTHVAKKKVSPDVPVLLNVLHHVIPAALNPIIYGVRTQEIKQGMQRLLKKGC
# Summary of the method: as §1
# O56B1 = tested on: T13, O56B1
# T13 sequence (whole entry): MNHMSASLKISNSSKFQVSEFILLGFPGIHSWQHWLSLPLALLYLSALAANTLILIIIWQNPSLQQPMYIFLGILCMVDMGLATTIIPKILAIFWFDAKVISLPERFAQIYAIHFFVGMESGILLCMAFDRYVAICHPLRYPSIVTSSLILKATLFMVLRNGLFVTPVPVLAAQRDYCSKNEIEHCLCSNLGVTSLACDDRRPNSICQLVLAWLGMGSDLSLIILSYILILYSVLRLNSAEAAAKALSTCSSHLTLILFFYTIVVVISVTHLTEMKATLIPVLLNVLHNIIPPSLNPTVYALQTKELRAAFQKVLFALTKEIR
# Summary of the method: as §1
# O56B4 = tested on: T14, O56B4
# T14 sequence (whole entry): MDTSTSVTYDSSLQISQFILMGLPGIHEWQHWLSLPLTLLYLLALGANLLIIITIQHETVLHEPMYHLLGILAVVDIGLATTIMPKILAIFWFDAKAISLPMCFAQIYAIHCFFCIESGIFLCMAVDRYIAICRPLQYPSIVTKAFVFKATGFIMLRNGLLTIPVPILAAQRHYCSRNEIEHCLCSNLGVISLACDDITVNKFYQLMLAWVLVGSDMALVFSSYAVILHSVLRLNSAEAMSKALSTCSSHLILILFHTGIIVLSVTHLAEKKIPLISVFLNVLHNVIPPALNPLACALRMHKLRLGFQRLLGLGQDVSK
# Summary of the method: as §1
# O5AC2 = tested on: T15, O5AC2
# T15 sequence (whole entry): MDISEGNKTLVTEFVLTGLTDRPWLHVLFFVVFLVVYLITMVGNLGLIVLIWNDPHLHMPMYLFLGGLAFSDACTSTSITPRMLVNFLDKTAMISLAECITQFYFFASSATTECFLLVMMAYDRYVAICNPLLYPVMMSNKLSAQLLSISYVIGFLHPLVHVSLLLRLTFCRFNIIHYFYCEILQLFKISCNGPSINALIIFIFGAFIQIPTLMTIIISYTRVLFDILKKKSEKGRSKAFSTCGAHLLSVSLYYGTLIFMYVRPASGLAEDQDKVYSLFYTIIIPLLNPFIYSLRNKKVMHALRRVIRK
# Summary of the method: as §1
# O5AK2 = tested on: T16, O5AK2
# T16 sequence (whole entry): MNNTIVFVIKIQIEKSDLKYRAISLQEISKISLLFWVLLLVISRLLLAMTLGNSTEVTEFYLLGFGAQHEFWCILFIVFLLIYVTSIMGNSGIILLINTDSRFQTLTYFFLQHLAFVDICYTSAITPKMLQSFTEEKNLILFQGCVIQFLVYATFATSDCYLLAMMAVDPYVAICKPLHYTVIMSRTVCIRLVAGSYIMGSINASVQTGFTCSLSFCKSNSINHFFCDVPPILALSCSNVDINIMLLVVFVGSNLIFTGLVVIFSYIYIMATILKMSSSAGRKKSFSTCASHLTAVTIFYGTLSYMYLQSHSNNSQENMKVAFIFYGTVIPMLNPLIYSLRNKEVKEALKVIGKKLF
# Summary of the method: as §1
# O5AK3 = tested on: T17, O5AK3
# T17 sequence (whole entry): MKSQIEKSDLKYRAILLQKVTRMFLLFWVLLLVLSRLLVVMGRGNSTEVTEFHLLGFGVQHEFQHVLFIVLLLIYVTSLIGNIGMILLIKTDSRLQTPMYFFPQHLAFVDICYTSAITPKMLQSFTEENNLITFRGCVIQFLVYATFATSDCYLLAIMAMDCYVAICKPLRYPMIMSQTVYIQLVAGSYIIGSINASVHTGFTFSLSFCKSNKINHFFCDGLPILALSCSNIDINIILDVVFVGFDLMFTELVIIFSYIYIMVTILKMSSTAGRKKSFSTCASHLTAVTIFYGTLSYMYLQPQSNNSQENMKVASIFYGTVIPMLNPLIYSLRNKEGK
# Summary of the method: as §1
structure (smiles),measurement,setting,value
COc1cc(C)ccc1O,odorant receptor agonist call,O52I2,inactive
same,odorant receptor agonist call,O52J3,inactive
same,odorant receptor agonist call,O52L1,inactive
same,odorant receptor agonist call,O52L2,inactive
same,odorant receptor agonist call,O52M1,inactive
same,odorant receptor agonist call,O52N1,active
same,odorant receptor agonist call,O52N2,inactive
same,odorant receptor agonist call,O52N4,inactive
same,odorant receptor agonist call,O52P1,inactive
same,odorant receptor agonist call,O52R1,inactive
same,odorant receptor agonist call,O52W1,inactive
same,odorant receptor agonist call,O56A3,inactive
same,odorant receptor agonist call,O56B1,inactive
same,odorant receptor agonist call,O56B4,inactive
same,odorant receptor agonist call,O5AC2,inactive
same,odorant receptor agonist call,O5AK2,inactive
same,odorant receptor agonist call,O5AK3,inactive

# In a second layout: results already given
structure (smiles)	measurement	setting	value
COc1cc(C)ccc1O	odorant receptor agonist call	O52W1	inactive
same	odorant receptor agonist call	O56A3	inactive
same	odorant receptor agonist call	O56B1	inactive
